Consider 24 targets from the supplement of paper PMC12067093, “Discovery and optimisation of a covalent ligand for TRIM25 and its application to targeted protein ubiquitination” (Chemical Science, 2025).

The chains behind the UniProt entries cited, without tags or fusion partners. Where a name states a change or a piece, a line headed by the entry shows the natural chain unless it says otherwise.
UniProt O14976: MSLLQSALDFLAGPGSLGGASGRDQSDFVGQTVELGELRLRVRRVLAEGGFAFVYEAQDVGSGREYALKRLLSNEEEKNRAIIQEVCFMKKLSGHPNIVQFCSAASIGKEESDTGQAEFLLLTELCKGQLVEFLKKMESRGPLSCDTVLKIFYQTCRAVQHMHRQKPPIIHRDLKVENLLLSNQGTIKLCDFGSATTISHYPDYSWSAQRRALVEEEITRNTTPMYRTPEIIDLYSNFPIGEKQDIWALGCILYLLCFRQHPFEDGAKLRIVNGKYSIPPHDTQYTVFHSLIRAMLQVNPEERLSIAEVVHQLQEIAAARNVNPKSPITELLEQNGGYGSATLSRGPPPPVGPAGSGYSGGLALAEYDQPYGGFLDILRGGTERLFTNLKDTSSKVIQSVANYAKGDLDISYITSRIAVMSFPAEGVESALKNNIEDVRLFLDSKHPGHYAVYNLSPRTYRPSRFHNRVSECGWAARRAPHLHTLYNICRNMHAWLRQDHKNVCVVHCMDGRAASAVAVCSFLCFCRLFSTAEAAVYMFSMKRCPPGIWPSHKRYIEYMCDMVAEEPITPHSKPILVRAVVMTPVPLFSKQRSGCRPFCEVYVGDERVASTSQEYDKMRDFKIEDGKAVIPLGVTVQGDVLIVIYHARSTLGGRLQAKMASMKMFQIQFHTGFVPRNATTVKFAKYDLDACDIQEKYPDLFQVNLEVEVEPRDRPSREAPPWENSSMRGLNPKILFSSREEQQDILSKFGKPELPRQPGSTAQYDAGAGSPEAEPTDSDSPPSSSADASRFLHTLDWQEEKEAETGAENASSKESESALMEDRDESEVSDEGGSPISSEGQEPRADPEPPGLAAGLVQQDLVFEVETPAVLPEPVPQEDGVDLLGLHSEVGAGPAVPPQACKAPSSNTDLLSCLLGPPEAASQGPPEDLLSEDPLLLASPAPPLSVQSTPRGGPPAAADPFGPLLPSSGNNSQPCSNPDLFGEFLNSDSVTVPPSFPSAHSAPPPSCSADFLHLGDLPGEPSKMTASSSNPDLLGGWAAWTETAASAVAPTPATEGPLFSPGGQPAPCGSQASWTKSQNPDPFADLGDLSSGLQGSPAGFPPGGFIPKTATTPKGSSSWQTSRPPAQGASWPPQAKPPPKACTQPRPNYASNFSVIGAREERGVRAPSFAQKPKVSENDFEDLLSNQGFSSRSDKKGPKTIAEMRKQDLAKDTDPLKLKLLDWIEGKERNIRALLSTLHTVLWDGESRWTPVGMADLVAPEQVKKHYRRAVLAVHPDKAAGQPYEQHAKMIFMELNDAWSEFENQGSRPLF
UniProt P07954: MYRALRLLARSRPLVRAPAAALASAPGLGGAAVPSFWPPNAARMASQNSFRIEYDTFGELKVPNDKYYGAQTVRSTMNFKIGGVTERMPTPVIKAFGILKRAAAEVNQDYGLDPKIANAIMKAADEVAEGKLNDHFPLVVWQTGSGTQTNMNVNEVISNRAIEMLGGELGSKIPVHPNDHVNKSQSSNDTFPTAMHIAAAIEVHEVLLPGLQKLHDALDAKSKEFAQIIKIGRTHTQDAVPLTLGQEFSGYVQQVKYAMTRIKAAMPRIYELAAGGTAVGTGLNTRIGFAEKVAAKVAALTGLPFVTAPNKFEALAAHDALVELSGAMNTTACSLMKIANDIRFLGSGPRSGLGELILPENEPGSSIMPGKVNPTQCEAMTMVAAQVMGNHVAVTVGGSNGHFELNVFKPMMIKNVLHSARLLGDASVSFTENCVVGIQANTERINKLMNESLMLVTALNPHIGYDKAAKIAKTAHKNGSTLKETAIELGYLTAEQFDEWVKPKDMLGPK
UniProt P51116, whole entry, looked up: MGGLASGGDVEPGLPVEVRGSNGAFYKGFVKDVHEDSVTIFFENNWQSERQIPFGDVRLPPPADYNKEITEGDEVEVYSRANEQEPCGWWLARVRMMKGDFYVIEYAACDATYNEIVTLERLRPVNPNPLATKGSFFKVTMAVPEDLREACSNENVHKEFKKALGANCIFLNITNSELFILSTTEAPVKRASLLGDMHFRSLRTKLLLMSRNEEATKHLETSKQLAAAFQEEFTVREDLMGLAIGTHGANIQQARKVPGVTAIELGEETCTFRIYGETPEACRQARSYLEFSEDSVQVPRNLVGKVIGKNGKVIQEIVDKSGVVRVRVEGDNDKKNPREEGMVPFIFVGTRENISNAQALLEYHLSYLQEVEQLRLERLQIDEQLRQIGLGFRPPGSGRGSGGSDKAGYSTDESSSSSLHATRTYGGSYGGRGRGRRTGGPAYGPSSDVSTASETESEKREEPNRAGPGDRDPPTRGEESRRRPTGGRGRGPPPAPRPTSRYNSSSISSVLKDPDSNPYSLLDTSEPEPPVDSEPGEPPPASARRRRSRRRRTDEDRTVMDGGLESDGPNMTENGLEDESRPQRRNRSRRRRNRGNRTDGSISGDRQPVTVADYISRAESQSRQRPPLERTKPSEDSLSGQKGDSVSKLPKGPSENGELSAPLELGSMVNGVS
UniProt Q14254: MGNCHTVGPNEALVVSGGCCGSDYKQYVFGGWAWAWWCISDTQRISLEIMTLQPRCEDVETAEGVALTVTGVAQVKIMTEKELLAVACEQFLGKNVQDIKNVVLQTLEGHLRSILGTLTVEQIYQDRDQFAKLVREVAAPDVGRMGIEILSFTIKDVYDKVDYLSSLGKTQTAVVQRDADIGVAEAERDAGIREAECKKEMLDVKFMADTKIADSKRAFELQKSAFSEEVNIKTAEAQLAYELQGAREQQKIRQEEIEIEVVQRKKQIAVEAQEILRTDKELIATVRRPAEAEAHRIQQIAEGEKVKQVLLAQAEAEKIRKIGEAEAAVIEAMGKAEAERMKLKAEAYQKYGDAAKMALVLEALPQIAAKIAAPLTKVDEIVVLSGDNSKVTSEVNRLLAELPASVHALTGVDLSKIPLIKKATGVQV
UniProt Q9UN86: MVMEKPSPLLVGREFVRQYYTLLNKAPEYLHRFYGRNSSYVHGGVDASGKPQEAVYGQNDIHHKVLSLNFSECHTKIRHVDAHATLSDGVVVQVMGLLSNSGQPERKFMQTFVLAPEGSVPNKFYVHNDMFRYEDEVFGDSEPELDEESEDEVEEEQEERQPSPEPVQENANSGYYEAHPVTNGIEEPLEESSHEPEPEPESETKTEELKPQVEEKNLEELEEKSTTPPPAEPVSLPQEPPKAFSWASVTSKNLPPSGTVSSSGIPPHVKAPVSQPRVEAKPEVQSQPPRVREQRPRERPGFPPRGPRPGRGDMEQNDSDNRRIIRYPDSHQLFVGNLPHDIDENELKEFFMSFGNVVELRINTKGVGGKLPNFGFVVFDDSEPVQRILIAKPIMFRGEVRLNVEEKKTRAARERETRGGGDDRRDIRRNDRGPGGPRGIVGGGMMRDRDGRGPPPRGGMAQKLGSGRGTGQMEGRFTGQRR
UniProt Q06546: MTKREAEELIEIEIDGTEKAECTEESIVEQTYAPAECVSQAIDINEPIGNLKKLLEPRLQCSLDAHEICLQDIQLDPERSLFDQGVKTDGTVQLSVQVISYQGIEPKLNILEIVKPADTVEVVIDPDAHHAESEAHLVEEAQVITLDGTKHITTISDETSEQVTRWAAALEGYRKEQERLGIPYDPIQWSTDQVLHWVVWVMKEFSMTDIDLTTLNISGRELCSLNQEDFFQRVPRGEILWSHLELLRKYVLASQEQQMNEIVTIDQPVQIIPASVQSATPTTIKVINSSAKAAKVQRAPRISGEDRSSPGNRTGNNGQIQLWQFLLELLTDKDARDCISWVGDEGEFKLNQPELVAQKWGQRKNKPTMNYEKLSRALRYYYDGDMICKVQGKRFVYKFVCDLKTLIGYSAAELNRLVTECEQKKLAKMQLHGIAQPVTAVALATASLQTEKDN
UniProt Q13045: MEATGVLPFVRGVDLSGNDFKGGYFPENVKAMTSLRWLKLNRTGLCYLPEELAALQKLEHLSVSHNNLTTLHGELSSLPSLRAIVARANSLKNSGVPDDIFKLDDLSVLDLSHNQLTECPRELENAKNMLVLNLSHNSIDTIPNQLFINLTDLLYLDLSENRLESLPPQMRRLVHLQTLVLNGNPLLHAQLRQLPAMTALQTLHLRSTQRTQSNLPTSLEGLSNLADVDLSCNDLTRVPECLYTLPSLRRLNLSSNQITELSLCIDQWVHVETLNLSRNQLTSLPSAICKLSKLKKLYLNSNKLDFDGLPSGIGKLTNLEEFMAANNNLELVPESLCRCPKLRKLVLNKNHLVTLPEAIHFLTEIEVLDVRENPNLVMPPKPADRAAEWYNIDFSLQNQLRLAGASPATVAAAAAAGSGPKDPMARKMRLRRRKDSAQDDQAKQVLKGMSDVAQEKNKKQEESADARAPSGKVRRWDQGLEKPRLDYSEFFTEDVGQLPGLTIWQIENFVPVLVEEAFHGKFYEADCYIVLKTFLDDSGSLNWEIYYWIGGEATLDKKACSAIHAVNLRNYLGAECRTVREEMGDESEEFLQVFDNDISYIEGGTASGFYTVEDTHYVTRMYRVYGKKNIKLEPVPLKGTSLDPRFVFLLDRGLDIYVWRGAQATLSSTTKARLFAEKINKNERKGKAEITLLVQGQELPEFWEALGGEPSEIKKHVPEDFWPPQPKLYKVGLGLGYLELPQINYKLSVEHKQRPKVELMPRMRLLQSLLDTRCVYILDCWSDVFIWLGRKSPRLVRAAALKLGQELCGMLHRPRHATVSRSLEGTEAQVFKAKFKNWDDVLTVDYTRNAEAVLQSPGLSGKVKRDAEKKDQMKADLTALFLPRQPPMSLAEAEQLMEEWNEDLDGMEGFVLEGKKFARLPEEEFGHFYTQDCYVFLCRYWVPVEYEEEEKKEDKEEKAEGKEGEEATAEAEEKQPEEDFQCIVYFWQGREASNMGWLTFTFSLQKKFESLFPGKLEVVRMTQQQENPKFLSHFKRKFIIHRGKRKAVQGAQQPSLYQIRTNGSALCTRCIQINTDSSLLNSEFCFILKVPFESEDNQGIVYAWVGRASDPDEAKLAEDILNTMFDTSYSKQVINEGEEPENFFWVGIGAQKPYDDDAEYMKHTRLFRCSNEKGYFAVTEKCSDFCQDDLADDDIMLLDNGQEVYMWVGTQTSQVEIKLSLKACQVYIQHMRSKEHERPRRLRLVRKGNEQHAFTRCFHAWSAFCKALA
UniProt Q14192: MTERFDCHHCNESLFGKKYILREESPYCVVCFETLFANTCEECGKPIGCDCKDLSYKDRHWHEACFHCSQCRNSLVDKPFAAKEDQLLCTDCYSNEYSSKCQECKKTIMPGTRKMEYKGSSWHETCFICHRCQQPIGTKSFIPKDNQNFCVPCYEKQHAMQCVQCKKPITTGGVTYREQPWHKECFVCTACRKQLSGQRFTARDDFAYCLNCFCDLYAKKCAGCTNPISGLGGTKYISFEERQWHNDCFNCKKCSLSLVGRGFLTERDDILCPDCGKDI
UniProt P51570: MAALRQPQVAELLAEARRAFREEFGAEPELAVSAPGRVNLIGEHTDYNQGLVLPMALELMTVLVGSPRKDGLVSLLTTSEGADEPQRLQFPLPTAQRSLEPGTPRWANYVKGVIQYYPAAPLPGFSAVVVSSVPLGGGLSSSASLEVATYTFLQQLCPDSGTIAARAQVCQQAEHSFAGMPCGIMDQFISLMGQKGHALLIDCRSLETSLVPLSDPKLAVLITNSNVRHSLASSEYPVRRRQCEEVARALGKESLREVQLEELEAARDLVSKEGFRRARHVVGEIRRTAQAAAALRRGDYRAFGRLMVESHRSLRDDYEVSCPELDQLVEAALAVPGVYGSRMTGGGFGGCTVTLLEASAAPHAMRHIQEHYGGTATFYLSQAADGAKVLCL
UniProt Q8NFF5: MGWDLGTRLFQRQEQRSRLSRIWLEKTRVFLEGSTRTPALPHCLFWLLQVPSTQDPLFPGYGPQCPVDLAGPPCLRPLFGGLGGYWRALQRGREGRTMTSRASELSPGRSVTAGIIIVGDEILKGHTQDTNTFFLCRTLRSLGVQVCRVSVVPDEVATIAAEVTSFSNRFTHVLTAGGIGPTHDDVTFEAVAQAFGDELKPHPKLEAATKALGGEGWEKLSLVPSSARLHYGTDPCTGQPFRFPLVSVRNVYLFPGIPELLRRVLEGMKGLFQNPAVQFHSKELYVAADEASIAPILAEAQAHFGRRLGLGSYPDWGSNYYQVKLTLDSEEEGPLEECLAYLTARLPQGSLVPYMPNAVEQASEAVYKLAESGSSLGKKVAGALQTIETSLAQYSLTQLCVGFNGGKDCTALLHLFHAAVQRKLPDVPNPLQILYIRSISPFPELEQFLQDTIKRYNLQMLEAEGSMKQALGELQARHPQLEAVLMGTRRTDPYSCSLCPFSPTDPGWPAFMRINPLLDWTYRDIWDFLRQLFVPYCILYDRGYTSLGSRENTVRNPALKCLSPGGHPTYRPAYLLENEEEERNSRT

Some of the results follow.

Compound in the experiment: Cc1cc(ccc1-c1ccccc1)C(=O)N1CCCN(CC1)C(=O)CCl [compound 10]
Description: probe-labelled cysteine peptide fold change vs DMSO (competition) (log2 fold change); higher = less target engagement (more negative = stronger competition). The conditions noted are these: THP-1, incubation time: 4 h.
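Further: competitive profiling in live THP-1 cells: cysteine peptides tagged with an iodoacetamide desthiobiotin (IA-DTB) probe, intensity after compound treatment relative to DMSO-treated cells.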

Consider “FKBP7_Q9Y680_104_GLDIAMTDMCPGEK (UniProt Q9Y680)”, for which the “probe-labelled cysteine peptide fold change” value runs as follows: (10 µM) -0.211; (50 µM) 0.0516.
Regarding “GAK_O14976_87_AIIQEVCFMK (UniProt O14976)”, the “probe-labelled cysteine peptide fold change” value reads like this: (10 µM) -0.161; (50 µM) -0.931.
The like results for “FH_P07954_333_FEALAAHDALVELSGAMNTTACSLMK (UniProt P07954)” were, in that order, 0.152 and -0.0738.
The matching figures for “FOCAD_Q5VW36_758_IRPEIPIPEELDDDEDVEDVDLSVPGSCYLK (UniProt Q5VW36)”: -0.0885 and 0.0745.
Consider “FRYL_O94915_1042_CHFSALVANIIQNVPVHQR (UniProt O94915)”, for which the “probe-labelled cysteine peptide fold change” value by setting is: (10 µM) 0.125; (50 µM) -0.0111.
With “FNDC3A_Q9Y2H6_369_GTPSEAEIFTTLSCEPDIPNPPR (UniProt Q9Y2H6)”, the “probe-labelled cysteine peptide fold change” value was -0.256 (10 µM) and 0.221 (50 µM).
Regarding “FTO_Q9C0B1_136_HTEAEIAAACETFLK (UniProt Q9C0B1)”, the “probe-labelled cysteine peptide fold change” value (10 µM) was 0.103 and the “probe-labelled cysteine peptide fold change” value (50 µM) worked out at 0.222.
With “FSCN1_Q16658_61_QIWTLEQPPDEAGSAAVCLR (UniProt Q16658)”, the “probe-labelled cysteine peptide fold change” value is -0.00757 (10 µM) and 0.149 (50 µM).
In the case of “FXR2_P51116_282_IYGETPEACR (UniProt P51116)”, the “probe-labelled cysteine peptide fold change” value is, setting by setting: (10 µM) 0.408; (50 µM) 0.0833.
The like results for “FILIP1L_Q4L180_990_AQTPESCGSLTPER (UniProt Q4L180)” were, in that order, -0.305 and 0.00388.
As to “FLNB_O75369_2431_MDCQETPEGYK (UniProt O75369)”, the “probe-labelled cysteine peptide fold change” value is, setting by setting: (10 µM) -0.0675; (50 µM) 0.0348.
“FLOT2_Q14254_56_CEDVETAEGVALTVTGVAQVK (UniProt Q14254)”: the “probe-labelled cysteine peptide fold change” value is -0.116 (10 µM) and 0.0576 (50 µM).
The like results for “G3BP2_Q9UN86_73_VLSLNFSECHTK (UniProt Q9UN86)” were, in that order, 0.143 and 0.0138.
Consider “GABPA_Q06546_421_LVTECEQK (UniProt Q06546)”, for which the “probe-labelled cysteine peptide fold change” value is, setting by setting: (10 µM) 0.0311; (50 µM) -0.108.
The matching figures for “FH_P07954_434_LLGDASVSFTENCVVGIQANTER (UniProt P07954)”: -0.37 and -0.0787.
For the target “FLII_Q13045_1067_TNGSALCTR (UniProt Q13045)”, the “probe-labelled cysteine peptide fold change” value is, setting by setting: (10 µM) 0.164; (50 µM) 0.0495.
The like results for “FHL2_Q14192_275_GFLTERDDILCPDCGK (UniProt Q14192)” were, in that order, 0.0254 and -0.163.
As to “FSCN1_Q16658_226_VAFRDCEGR (UniProt Q16658)”, the “probe-labelled cysteine peptide fold change” value by setting is: (10 µM) -0.244; (50 µM) -0.563.
Take “GAK_O14976_595_SGCRPFCEVYVGDER (UniProt O14976)”: the “probe-labelled cysteine peptide fold change” value is, setting by setting: (10 µM) 0.00365; (50 µM) -0.366.
The like results for “FLII_Q13045_119_LDDLSVLDLSHNQLTECPR (UniProt Q13045)” were, in that order, -0.0794 and 0.293.
“FN1_P02751_386_QDGHLWCSTTSNYEQDQK (UniProt P02751)”: the “probe-labelled cysteine peptide fold change” value (10 µM) was -0.186 and the “probe-labelled cysteine peptide fold change” value (50 µM) is -0.163.
The like results for “GALK1_P51570_203_GHALLIDCR (UniProt P51570)” were, in that order, 0.226 and 0.303.
Consider “FNBP1L_Q5T0N5_543_GPPQQHGHHNEFDDEFEDDDPLPAIGHCK (UniProt Q5T0N5)”, for which the “probe-labelled cysteine peptide fold change” value (10 µM) is -0.0896 and the “probe-labelled cysteine peptide fold change” value (50 µM) was -0.0118.
As to “FLAD1_Q8NFF5_147_SLGVQVCR (UniProt Q8NFF5)”, the “probe-labelled cysteine peptide fold change” value (10 µM) turned out to be 0.131 and the “probe-labelled cysteine peptide fold change” value (50 µM) was -0.00527.
